The source of these data is publication PMC7819943, “Rice protein-binding microarrays: a tool to detect cis-acting elements near promoter regions in rice”.

Some of the results follow.

The test addresses T1, OsSMF1 (Oryza sativa, UniProt Q6ZLB0 1-436).
T1 sequence: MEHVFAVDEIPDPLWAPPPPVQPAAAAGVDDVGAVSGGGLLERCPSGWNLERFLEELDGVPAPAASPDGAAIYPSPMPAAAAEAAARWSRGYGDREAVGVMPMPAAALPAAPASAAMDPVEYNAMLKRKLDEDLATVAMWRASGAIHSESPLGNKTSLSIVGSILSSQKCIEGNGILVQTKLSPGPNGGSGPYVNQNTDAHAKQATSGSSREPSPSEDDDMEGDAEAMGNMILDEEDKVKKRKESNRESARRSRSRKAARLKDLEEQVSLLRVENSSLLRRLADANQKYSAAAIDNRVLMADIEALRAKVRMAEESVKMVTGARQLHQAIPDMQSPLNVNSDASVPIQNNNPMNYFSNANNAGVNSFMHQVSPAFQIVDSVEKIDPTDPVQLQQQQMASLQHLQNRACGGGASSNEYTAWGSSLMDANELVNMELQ
The test can be described thus: protein-binding microarray (RPBM); PBS, 2% BSA, 51.3 ng/ul salmon testes DNA, 50 uM zinc acetate, 200 nM TF, 25 C, 1 h; high values mean tight binding. The note with it: protein: recombinant; tags: N-terminal polyhistidine and DsRed monomer fusion (pET32a); chain copies: 2; label: CyDye5-dUTP incorporated in the synthesized complementary strand; 3' TTTTT single-stranded linker to array surface; dsDNA, one strand shown. The method in brief:
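Polyhistidine-tagged DsRed fusions of transcription factors, joined at the N-terminus, were expressed in E. coli BL21-CodonPlus and isolated on Ni–NTA. They were incubated at 200 nM for 1 h at 25 °C on a custom Agilent array, double-stranded and BSA-blocked, in PBS with 2% BSA, salmon testes DNA and 50 µM zinc acetate. The binding signal is per-feature fluorescence intensity (arbitrary units) read on an Axon 4000B scanner after washing.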
Regarding “ATGGAACGACCACGTCATCTCAAAAGGTGAATCCATACATCGGAGTCACCTAGTGCAG”, the binding signal was 11600 fluorescence intensity (a.u.).

Turning to “ACTAGCAGTGAAAGCAAATGCAACTCTGCAACTGCAAAGTCGGAGTCACCTAGTGCAG”, the binding signal is 10600 fluorescence intensity (a.u.).

Turning to “TCCTTTCCACCAATCCACCCTGCCACCTCGGCTCCCACCGCGGAGTCACCTAGTGCAG”, the binding signal is 4090 fluorescence intensity (a.u.).

For “GTGTATAATTCGCATGTCCCTGCACCGCCTAACATGCTGACGGAGTCACCTAGTGCAG”, the binding signal was 3250 fluorescence intensity (a.u.).

On to “GGCGAGAGCATCGGTGTTGGTGACGAGGGTCGTAGATCCACGGAGTCACCTAGTGCAG”, for which the binding signal was 4190 fluorescence intensity (a.u.).

For the sequence “TGGGTCGGCATCCTCGGTGTTGATAGTTATAGCCCAGTAGCGGAGTCACCTAGTGCAG”, the binding signal is 3280 fluorescence intensity (a.u.).

As for “TTTACATCACAAAAGAATTACCGGCCCCAACAAAATAATACGGAGTCACCTAGTGCAG”, the binding signal was 18600 fluorescence intensity (a.u.).

On to “GTGCCATGCCAGGGAAGCTTTGAGGTGCCACGTGGCCCAACGGAGTCACCTAGTGCAG”, for which the binding signal was 18800 fluorescence intensity (a.u.).

As to “GCCCAACTACCGTTCTCGTATGACAGTGCAAATGTCATGCCGGAGTCACCTAGTGCAG”, the binding signal is 4130 fluorescence intensity (a.u.).

Regarding “CCACGAGATACTACTATCGCCGCCGCCGCGGGCGTGGCGCCGGAGTCACCTAGTGCAG”, the binding signal is 3830 fluorescence intensity (a.u.).

Consider “GAGAGAGAGAGAGAGAAAGCGCCACGCCCGCGATATTATTCGGAGTCACCTAGTGCAG”, for which the binding signal was 3180 fluorescence intensity (a.u.).

In the case of “GAGAAGGCGAGGCGGCGCTGGCGAGCGGTGAAAGGATGGGCGGAGTCACCTAGTGCAG”, the binding signal is 5090 fluorescence intensity (a.u.).

As to “TAGCAAGTACTCCTACGTGCATACCACAGCCTGCTATCTTCGGAGTCACCTAGTGCAG”, the binding signal is 3450 fluorescence intensity (a.u.).

For “AAGTTGAAACCGCGGCGTCATCATCATCTCGATATTCACCCGGAGTCACCTAGTGCAG”, the binding signal is 5580 fluorescence intensity (a.u.).

“TAAAATTTAAATTTTGGCTAATAAGTATAAGCATAACTGTCGGAGTCACCTAGTGCAG”: the binding signal is 34300 fluorescence intensity (a.u.).

In the case of “GTGTGTGTGTGTGTGTGTGTGTGTGAGAGAGAGAGAGAGACGGAGTCACCTAGTGCAG”, the binding signal was 3250 fluorescence intensity (a.u.).

“TGTGGCGAGCAGGTGACAAGCACACGTACGTGAGGGTAATCGGAGTCACCTAGTGCAG”: the binding signal was 3470 fluorescence intensity (a.u.).

Take “AAGATGAAACTGACACATGCACCACTCCCTCTCTTTCTCTCGGAGTCACCTAGTGCAG”: the binding signal was 4840 fluorescence intensity (a.u.).

As to “GGTGTGAGTGTGATGTTGCTCGTGTAATGATGCGTGTGCGCGGAGTCACCTAGTGCAG”, the binding signal was 5000 fluorescence intensity (a.u.).

Regarding “GCCTCAAAGGCCCACGTGGGGCCCAAGTAAATTTCGGCCCCGGAGTCACCTAGTGCAG”, the binding signal was 5830 fluorescence intensity (a.u.).

As to “CCACCACGCGAACGACGACTCGATCAACATCACCAGCCAGCGGAGTCACCTAGTGCAG”, the binding signal is 3170 fluorescence intensity (a.u.).

Regarding “ATCCAAATTGGACCCATCTAGTTGCCCCGGCCCAACACGGCGGAGTCACCTAGTGCAG”, the binding signal was 17700 fluorescence intensity (a.u.).

Regarding “CGAGCTGCTTAAACCTAACTCCACCTCTAGTTCATTTTGTCGGAGTCACCTAGTGCAG”, the binding signal was 3380 fluorescence intensity (a.u.).

Turning to “TGAACAAACAAATACTAGTCACCGTCACGTTCGCTAGAGCCGGAGTCACCTAGTGCAG”, the binding signal was 4910 fluorescence intensity (a.u.).

Take “GGTGACAATTGTCATTTGCTCAGCAACTAACATTACTAAACGGAGTCACCTAGTGCAG”: the binding signal is 18200 fluorescence intensity (a.u.).

For the sequence “TGCACCATTGCCCTCAAGGGATGGTGTTGGTAGGACACATCGGAGTCACCTAGTGCAG”, the binding signal was 21700 fluorescence intensity (a.u.).

Regarding “GTCAGCGGTTGGTGCCGCACAATTGTCTTTAAATTATTTGCGGAGTCACCTAGTGCAG”, the binding signal was 3350 fluorescence intensity (a.u.).

“GTATGTGTACTCTTGCTGTGATGTGTGGTCGATCGAGTCACGGAGTCACCTAGTGCAG”: the binding signal was 5110 fluorescence intensity (a.u.).

Turning to “GAACATATGACGTTTGCTGCTTGTACAAAGGAATCCCCTCCGGAGTCACCTAGTGCAG”, the binding signal was 3720 fluorescence intensity (a.u.).

In the case of “GCATCACACACTCGTCAGCAACACGTCTTACATATTTCACCGGAGTCACCTAGTGCAG”, the binding signal was 11300 fluorescence intensity (a.u.).

Regarding “CGTGGACAAAATGACAAACGATAGGGTGACATGACACACCCGGAGTCACCTAGTGCAG”, the binding signal is 4090 fluorescence intensity (a.u.).

Regarding “GTCATATGATTTCCACGTGTCATTAACCTATGAAAGTGTGCGGAGTCACCTAGTGCAG”, the binding signal is 15800 fluorescence intensity (a.u.).

As for “TCTCCTCTAATCTTTCTTCCAGCTCACCAAAGAAATCCACCGGAGTCACCTAGTGCAG”, the binding signal was 3300 fluorescence intensity (a.u.).

Turning to “TGATTGTGTGATTGATGATTAGTGTGTGTATGACTGTATCCGGAGTCACCTAGTGCAG”, the binding signal was 6180 fluorescence intensity (a.u.).

For “CTCGTCTTCAGAAACAAAAGATGACTGTTGTTGTTGGCCACGGAGTCACCTAGTGCAG”, the binding signal was 4000 fluorescence intensity (a.u.).

As for “TTCCATTCTACTCCGGCCATGGCCTACGGCGCTCAGCACGCGGAGTCACCTAGTGCAG”, the binding signal is 3530 fluorescence intensity (a.u.).

Turning to “CGTGCGACCCAGATCTCGCCACGTATGCGCGCGGATCGGCCGGAGTCACCTAGTGCAG”, the binding signal was 10800 fluorescence intensity (a.u.).

With “TATAGCTAACCGAACTATTAATTGCGTGTACAACAAAATACGGAGTCACCTAGTGCAG”, the binding signal was 3180 fluorescence intensity (a.u.).

On to “AAATCAGTCATCATATATAAAGTACTATTTATGTTTTATCCGGAGTCACCTAGTGCAG”, for which the binding signal is 3730 fluorescence intensity (a.u.).

Take “CAACGCACAGCAAATCGGGATGGACGTGTGTCGCCTGGGTCGGAGTCACCTAGTGCAG”: the binding signal was 3880 fluorescence intensity (a.u.).

With “GAGGACGGTGCCACCGTGGTGCGTCACAGCTGGTCGCTCGCGGAGTCACCTAGTGCAG”, the binding signal is 8180 fluorescence intensity (a.u.).

With “GTTTATGGAAACTATATTAGTGTTTTGGATTGGGAATGGGCGGAGTCACCTAGTGCAG”, the binding signal is 24900 fluorescence intensity (a.u.).
